The assay concerns the target FLAG-HA-tagged TOE1ΔDEDD, DEDD domain deletion mutant (human). Put plainly: co-IP; 293T cells transiently expressing FLAG-HA-tagged wild-type or mutant TOE1; IP with anti-FLAG agarose beads; blots with anti-FLAG and anti-DKC1 (endogenous DKC1); no RNase.

The results in this text go back to article PMC6326811.

Results are given in words; binding and its absence hold for the method and conditions named. In cells and extracts the contact can be indirect.

B1: DKC1 (endogenous) (protein, UniProt O60832 1-514)
chain: MADAEVIILPKKHKKKKERKSLPEEDVAEIQHAEEFLIKPESKVAKLDTSQWPLLLKNFDKLNVRTTHYTPLACGSNPLKREIGDYIRTGFINLDKPSNPSSHEVVAWIRRILRVEKTGHSGTLDPKVTGCLIVCIERATRLVKSQQSAGKEYVGIVRLHNAIEGGTQLSRALETLTGALFQRPPLIAAVKRQLRVRTIYESKMIEYDPERRLGIFWVSCEAGTYIRTLCVHLGLLLGVGGQMQELRRVRSGVMSEKDHMVTMHDVLDAQWLYDNHKDESYLRRVVYPLEKLLTSHKRLVMKDSAVNAICYGAKIMLPGVLRYEDGIEVNQEIVVITTKGEAICMAIALMTTAVISTCDHGIVAKIKRVIMERDTYPRKWGLGPKASQKKLMIKQGLLDKHGKPTDSTPATWKQEYVDYSESAKKEVVAEVVKAPQVVAEAAKTAKRKRESESESDETPPAAPQLIKKEKKKSKKDKKAKAGLESGAEPGDGDSDTTKKKKKKKKAKEVELVSE
B1: the binding result is listed as “no binding”.
